No constants are given. Whether binding was seen depends on the method and setting. In cells and extracts the contact can be indirect. A yes stands for co-enrichment or nearness to the bait. Other partners may have been found.
Molecular target: T1, Mitogen-activated protein kinase phosphatase-4 (MKP-4) (human (endogenous in HCC tissue and HepG2)) (UniProt Q99956)
T1 sequence: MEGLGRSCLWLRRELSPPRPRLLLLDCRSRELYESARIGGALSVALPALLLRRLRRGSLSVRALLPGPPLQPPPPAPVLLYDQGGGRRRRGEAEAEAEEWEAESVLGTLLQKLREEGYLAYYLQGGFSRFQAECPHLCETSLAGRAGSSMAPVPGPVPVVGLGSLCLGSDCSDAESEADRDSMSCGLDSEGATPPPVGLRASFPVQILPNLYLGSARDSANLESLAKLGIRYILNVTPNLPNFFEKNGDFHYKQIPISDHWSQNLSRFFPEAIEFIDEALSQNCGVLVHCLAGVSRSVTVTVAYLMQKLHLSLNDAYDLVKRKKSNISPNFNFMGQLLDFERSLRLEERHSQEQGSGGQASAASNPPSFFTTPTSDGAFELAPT
Test: affinity purification with mass spectrometry; HCC tissue lysate (25 mM Tris-HCl pH 7.5, 150 mM NaCl, 1 mM EDTA, 1% NP-40) immunoprecipitated with anti-MKP-4 antibody at 4 °C overnight, protein G Sepharose; gel bands analysed on an LTQ mass spectrometer

Sequences of proteins named here, by UniProt entry; tags and fusion partners are left off.
UniProt P28482: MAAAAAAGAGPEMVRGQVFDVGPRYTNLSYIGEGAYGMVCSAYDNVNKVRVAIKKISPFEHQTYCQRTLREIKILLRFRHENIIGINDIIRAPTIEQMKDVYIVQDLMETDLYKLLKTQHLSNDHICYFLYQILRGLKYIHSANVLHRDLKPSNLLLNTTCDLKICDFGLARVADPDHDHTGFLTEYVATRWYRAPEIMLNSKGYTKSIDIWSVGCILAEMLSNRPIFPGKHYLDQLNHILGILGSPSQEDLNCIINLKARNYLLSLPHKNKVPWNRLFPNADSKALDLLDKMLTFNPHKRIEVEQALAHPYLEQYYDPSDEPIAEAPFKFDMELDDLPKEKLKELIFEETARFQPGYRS
UniProt P27361: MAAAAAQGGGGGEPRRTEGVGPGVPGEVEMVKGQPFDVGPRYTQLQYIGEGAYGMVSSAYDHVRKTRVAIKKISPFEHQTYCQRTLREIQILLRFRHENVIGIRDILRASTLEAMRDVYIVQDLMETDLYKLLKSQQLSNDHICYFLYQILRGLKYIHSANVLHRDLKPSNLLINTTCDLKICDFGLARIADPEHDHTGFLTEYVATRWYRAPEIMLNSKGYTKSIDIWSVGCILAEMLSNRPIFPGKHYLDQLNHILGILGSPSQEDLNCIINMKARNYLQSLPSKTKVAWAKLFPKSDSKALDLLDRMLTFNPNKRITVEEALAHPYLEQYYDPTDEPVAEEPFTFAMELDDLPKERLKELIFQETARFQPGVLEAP

| Substance | binding |
| --- | --- |
| Extracellular signal-regulated kinase 2 (ERK2) (from UniProt P28482 1-360) (enzyme) | binds |
| Extracellular signal-regulated kinase 1 (ERK1) (from UniProt P27361 1-379) (enzyme) | binds |
